Some of the results follow.

For the assay, the target named is T1, OsSMF1 (Oryza sativa, UniProt Q6ZLB0 1-436).
T1 sequence: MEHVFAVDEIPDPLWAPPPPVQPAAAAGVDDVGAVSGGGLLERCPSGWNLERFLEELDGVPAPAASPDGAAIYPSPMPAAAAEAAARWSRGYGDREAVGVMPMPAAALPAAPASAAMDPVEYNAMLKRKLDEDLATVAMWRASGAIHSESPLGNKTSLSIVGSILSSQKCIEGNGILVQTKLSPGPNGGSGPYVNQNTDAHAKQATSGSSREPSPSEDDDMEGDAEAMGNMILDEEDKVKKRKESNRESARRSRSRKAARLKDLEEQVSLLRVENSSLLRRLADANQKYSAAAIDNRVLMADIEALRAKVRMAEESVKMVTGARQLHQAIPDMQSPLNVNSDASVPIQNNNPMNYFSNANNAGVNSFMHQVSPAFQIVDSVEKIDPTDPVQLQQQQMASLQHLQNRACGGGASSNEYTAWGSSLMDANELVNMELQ
Put plainly: protein-binding microarray (RPBM); PBS, 2% BSA, 51.3 ng/ul salmon testes DNA, 50 uM zinc acetate, 200 nM TF, 25 C, 1 h; high values mean tight binding. Conditions: protein: recombinant; tags: N-terminal polyhistidine and DsRed monomer fusion (pET32a); chain copies: 2; label: CyDye5-dUTP incorporated in the synthesized complementary strand; 3' TTTTT single-stranded linker to array surface; dsDNA, one strand shown. The procedure, abridged:
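Binding signal is reported as fluorescence intensity per feature (arbitrary units) from an Axon 4000B scanner. Incubation used 200 nM of each Ni–NTA-purified, N-terminally polyhistidine- and DsRed-fused transcription factor from E. coli BL21-CodonPlus on a double-stranded custom Agilent array for 1 h at 25 °C, with 50 µM zinc acetate in the buffer, followed by washing.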
As to “GAGGTTAGACAAGTTTGACCATGTTAGGTGAGTGTTTGGTCGGAGTCACCTAGTGCAG”, the binding signal is 4150 fluorescence intensity (a.u.).
As for “TATTGACTTGAATTGGTTCCTACACTTCATACCAACTTGTCGGAGTCACCTAGTGCAG”, the figure is 3190 fluorescence intensity (a.u.); as for “CCTATGACTATGCATCTGGCGAAGAGATTCTCCTTGTGATCGGAGTCACCTAGTGCAG”, 3420 fluorescence intensity (a.u.).
Under “CGGTCTGACCGCCCACATACCTGCGGTCAGACCGGCCCTACGGAGTCACCTAGTGCAG” stands 3420 fluorescence intensity (a.u.); under “TGCCAAGCAAGTCCATGCCGCCACAACTCCTTCCTTCTCCCGGAGTCACCTAGTGCAG”, 3690 fluorescence intensity (a.u.).
As to “TCGATCTCTTTACATCTCGTTGATGGCGTCATGGCGATGACGGAGTCACCTAGTGCAG”, the binding signal was 6700 fluorescence intensity (a.u.).
As for “GCAGCGCCGCCGCCTCATCCGCGTCGACCTCCGCCTCCGCCGGAGTCACCTAGTGCAG”, the figure is 3340 fluorescence intensity (a.u.); as for “ATCCATGTTTCGACATAAACCCATTCAAACAAAGATCCATCGGAGTCACCTAGTGCAG”, 28800 fluorescence intensity (a.u.); as for “GGATCTACATTTTCGAATTTTACATATAGCAAAATAGCACCGGAGTCACCTAGTGCAG”, 3950 fluorescence intensity (a.u.).
As for “TGGATATTTTCTACCCCTGGACCCAGCTGTCAGATCCAACCGGAGTCACCTAGTGCAG”, the figure is 3250 fluorescence intensity (a.u.); as for “TTACTTTTATATATATGACGTTTGACAATCCTCTTAATAACGGAGTCACCTAGTGCAG”, 3750 fluorescence intensity (a.u.).
Take “ACCATGAATTCGATGATATTATCGTCAAAGTCATGAAAGACGGAGTCACCTAGTGCAG”: the binding signal is 3400 fluorescence intensity (a.u.).
Under “GTTGCATGATTAAACGAATTGACACGTCCTGAACCCGATTCGGAGTCACCTAGTGCAG” stands 7560 fluorescence intensity (a.u.); under “AGTATTGATGATGCATCTTAGGTCACCAGCTGGCACGTCCCGGAGTCACCTAGTGCAG”, 5060 fluorescence intensity (a.u.); under “CCTGCTATAAATACTTCACGTTGCTGTGTTCATAGAAACACGGAGTCACCTAGTGCAG”, 3200 fluorescence intensity (a.u.).
As for “GGGTTGCAAATTTAACACCCGTCACAGGTGAGGTCAAACCCGGAGTCACCTAGTGCAG”, the figure is 4500 fluorescence intensity (a.u.).
For the sequence “ATAATTTGTTCAACATAGCTTCATGCCTTCTCAGCTTCTCCGGAGTCACCTAGTGCAG”, the binding signal was 3520 fluorescence intensity (a.u.).
In the case of “CTTTTCTCTAACAGCGAGTTCAGTATCATTGACTGTCTCACGGAGTCACCTAGTGCAG”, the binding signal is 3370 fluorescence intensity (a.u.).
For the sequence “GCCACCCTCAGCCACTGGCCATCCGTGGGCCCCACCATCCCGGAGTCACCTAGTGCAG”, the binding signal is 22500 fluorescence intensity (a.u.).
Under “AATTTTAGCATGGAACTAAACACAGCAGTAGTAGGAGTTTCGGAGTCACCTAGTGCAG” stands 38200 fluorescence intensity (a.u.); under “GAAGCCAGACACGTCAATTAAAGCTCGTAGGGATTTAGCTCGGAGTCACCTAGTGCAG”, 3160 fluorescence intensity (a.u.); under “CCCAATACATTGCCTACGCCGTGCCAAGTGCCAAACAGGGCGGAGTCACCTAGTGCAG”, 4330 fluorescence intensity (a.u.).
Under “TTGTATTTATGTGTGTGTACAGTCACCAGTATTTGTATTTCGGAGTCACCTAGTGCAG” stands 9770 fluorescence intensity (a.u.).
In the case of “CACTCTCTCTTCTCTCACTGCCACGTGGGCCCCACCCCATCGGAGTCACCTAGTGCAG”, the binding signal is 23000 fluorescence intensity (a.u.).
As for “AAGCCGAAGCCACCCAGGGAGGGATTCAGCCGCGCGAGTCCGGAGTCACCTAGTGCAG”, the figure is 36300 fluorescence intensity (a.u.); as for “AACCCGGCGTTGGTGAGCTGTTCCATTGTGTCTATAGGCACGGAGTCACCTAGTGCAG”, 3210 fluorescence intensity (a.u.).
As for “TGTTTTCTTGATTGAAATGAGGTGGCATTGCCTACTTGCCCGGAGTCACCTAGTGCAG”, the figure is 5940 fluorescence intensity (a.u.).
Under “CACAAGTACTAGCCTCAATGCGTCACACGGACATGTACAGCGGAGTCACCTAGTGCAG” stands 4120 fluorescence intensity (a.u.); under “AGGGAGGAGAGGAAGATCACGAGCAATGCAGAACGTGGAGCGGAGTCACCTAGTGCAG”, 3730 fluorescence intensity (a.u.); under “ACGAGTGGCAGCTAGAGATGGCAATGGGGACCCATGACCCCGGAGTCACCTAGTGCAG”, 11200 fluorescence intensity (a.u.).
As to “ACAATCATTGTGATGTTGTCAAAGTCGTCCAAATACTTGCCGGAGTCACCTAGTGCAG”, the binding signal is 3470 fluorescence intensity (a.u.).
As for “GCGGCCGCCGGCGCCGCTGTACATGTGCGTGCGGATACATCGGAGTCACCTAGTGCAG”, the figure is 3590 fluorescence intensity (a.u.); as for “CCCAAAACCATCGATGACATGTCGCTGTCATGCCACCACACGGAGTCACCTAGTGCAG”, 5910 fluorescence intensity (a.u.); as for “GCATGGCCCAGTTGACGTGGACGCTGCCCACCTATACTACCGGAGTCACCTAGTGCAG”, 10700 fluorescence intensity (a.u.).
Regarding “GTCGCCGCCCTCTCTCTCTCACGCATCCCACGCCGCCGTGCGGAGTCACCTAGTGCAG”, the binding signal was 3180 fluorescence intensity (a.u.).
As to “GATCTAGCCGACTCGATCCCGCCGATGACGATTCCATCCCCGGAGTCACCTAGTGCAG”, the binding signal was 39300 fluorescence intensity (a.u.).
Regarding “CACTCTAGAAGACAACAAGACATAGCCCGTCACCACCACACGGAGTCACCTAGTGCAG”, the binding signal is 3210 fluorescence intensity (a.u.).
Under “CTCCAAGCCCGTGATGGCCAAGCAGACAGCAGATTAAGAACGGAGTCACCTAGTGCAG” stands 3350 fluorescence intensity (a.u.); under “AGTCTCTAACTAAACACCATATATCTCTATTAATTACTACCGGAGTCACCTAGTGCAG”, 16000 fluorescence intensity (a.u.).
Regarding “AAACCATCATCTTCACTAGTAGTAGAACCCAGATCGAGCACGGAGTCACCTAGTGCAG”, the binding signal was 10200 fluorescence intensity (a.u.).
Under “CGCTTCGGTGGAGCTCTGGATCTGACGCGTCCTCTTCTTCCGGAGTCACCTAGTGCAG” stands 6160 fluorescence intensity (a.u.); under “TTATTCTTCTACCTAACCAGATCTCTCAGACCATATCATCCGGAGTCACCTAGTGCAG”, 3980 fluorescence intensity (a.u.).

The record behind these values is paper PMC7819943, “Rice protein-binding microarrays: a tool to detect cis-acting elements near promoter regions in rice”.
